Results as given in the supplement of paper PMC10849652.
This is one part of the list. Residues, ends and D or L forms follow the SMILES beside them. *: point of attachment. Cbz = O=C(OCc1ccccc1)*

Amino acid sequences for entries named in this document (tags omitted). A change or cut given only in a name is not applied to a line headed by its entry.
UniProt P29372, whole entry, looked up: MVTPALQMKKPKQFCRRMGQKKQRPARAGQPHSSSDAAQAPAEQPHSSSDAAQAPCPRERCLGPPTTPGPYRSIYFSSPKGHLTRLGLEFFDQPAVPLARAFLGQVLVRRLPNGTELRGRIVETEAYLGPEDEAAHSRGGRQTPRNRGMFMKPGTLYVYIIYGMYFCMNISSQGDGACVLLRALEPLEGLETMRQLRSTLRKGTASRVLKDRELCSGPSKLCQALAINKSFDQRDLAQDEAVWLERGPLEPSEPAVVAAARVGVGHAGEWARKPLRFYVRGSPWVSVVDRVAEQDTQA
UniProt P49959: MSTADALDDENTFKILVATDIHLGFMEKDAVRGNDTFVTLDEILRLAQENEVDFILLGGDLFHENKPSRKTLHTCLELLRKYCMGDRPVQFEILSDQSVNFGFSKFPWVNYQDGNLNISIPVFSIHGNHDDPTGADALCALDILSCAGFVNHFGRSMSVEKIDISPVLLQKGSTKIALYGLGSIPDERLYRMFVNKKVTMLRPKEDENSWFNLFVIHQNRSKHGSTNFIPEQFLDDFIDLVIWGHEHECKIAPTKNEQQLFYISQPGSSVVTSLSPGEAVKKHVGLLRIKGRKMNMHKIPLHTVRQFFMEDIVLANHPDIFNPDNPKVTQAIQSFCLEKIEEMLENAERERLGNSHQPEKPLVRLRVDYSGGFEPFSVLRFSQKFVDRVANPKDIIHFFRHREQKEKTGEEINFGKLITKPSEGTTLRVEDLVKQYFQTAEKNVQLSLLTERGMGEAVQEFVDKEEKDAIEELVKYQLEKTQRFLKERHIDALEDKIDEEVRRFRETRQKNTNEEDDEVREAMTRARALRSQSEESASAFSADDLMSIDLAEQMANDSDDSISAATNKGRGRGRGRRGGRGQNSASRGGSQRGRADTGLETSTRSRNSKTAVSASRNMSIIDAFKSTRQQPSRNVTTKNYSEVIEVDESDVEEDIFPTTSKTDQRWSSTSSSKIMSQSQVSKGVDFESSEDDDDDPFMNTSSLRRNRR
UniProt Q567V2: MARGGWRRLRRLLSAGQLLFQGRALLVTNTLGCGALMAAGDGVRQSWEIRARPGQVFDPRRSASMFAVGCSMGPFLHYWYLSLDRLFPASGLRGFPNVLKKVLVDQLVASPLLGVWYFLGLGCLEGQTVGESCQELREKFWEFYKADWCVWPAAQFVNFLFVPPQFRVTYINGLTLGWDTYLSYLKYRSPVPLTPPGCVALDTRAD
UniProt Q5TGZ0: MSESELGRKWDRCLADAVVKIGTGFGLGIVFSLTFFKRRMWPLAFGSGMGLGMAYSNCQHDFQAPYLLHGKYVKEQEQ
UniProt Q9UNW1: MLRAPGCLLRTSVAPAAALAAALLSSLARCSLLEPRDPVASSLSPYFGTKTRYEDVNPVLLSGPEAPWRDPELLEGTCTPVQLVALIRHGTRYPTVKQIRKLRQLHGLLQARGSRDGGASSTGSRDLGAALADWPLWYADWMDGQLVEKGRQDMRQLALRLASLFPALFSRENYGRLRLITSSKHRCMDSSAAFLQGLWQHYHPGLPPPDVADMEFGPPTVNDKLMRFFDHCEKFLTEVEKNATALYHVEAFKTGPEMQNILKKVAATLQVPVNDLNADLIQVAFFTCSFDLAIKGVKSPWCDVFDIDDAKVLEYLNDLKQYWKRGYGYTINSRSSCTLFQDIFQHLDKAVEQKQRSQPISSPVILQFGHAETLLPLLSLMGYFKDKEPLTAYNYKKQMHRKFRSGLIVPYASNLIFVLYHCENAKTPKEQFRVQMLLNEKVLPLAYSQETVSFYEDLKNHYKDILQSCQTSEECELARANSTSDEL
UniProt O95563: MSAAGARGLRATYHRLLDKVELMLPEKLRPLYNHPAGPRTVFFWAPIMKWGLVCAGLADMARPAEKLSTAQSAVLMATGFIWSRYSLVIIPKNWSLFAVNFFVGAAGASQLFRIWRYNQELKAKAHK
UniProt Q14165: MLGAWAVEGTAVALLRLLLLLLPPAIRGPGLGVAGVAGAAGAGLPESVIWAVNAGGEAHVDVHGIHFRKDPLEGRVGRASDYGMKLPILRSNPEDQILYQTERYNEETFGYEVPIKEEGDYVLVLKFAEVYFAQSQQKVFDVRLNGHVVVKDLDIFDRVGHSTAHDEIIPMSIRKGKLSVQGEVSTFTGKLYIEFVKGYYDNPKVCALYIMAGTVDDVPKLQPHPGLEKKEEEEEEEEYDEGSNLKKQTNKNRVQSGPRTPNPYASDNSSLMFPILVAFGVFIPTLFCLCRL
UniProt Q9BV20: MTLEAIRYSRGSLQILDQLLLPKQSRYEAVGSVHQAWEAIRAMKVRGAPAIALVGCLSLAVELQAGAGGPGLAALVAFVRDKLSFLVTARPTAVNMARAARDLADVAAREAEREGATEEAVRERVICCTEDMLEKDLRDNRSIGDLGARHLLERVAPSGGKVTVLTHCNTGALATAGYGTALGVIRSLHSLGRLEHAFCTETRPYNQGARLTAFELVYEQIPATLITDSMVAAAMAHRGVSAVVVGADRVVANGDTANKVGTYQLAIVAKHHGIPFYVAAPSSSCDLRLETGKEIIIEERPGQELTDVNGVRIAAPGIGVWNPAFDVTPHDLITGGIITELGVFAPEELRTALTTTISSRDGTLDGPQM
UniProt Q9H8M7: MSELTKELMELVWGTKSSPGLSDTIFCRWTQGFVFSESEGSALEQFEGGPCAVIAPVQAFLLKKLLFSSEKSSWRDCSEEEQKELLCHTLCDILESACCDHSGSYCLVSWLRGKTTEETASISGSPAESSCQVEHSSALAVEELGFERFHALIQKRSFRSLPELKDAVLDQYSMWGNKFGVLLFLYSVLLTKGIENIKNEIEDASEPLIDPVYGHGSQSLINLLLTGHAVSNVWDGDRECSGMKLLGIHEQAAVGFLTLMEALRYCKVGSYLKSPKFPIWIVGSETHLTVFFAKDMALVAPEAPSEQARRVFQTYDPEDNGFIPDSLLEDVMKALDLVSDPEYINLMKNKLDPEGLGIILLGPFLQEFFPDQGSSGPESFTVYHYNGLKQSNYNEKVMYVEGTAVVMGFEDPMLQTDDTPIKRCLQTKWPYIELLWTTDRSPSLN
UniProt P22033: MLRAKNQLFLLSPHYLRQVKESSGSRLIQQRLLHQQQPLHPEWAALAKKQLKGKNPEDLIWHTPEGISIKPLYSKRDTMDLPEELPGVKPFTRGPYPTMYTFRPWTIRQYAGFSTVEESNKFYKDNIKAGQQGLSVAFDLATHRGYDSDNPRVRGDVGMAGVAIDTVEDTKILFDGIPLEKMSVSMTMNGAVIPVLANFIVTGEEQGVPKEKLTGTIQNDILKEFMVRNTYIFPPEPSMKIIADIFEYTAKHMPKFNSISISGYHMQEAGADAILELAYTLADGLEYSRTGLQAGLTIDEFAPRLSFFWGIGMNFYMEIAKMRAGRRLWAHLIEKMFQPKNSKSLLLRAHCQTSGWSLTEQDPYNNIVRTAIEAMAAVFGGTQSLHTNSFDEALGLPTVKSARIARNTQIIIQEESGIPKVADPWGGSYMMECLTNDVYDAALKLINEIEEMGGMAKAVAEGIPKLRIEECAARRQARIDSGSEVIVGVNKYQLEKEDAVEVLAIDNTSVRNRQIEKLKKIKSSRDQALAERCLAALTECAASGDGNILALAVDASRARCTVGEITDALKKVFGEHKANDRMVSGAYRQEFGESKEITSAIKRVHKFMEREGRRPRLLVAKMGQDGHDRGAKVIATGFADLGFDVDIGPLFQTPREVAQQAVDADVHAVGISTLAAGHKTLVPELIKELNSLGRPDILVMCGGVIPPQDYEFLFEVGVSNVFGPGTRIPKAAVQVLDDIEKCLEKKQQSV

What was measured:
Experiment in all cases: log2 fold change, soluble protein after heating vs DMSO (PISA); higher = thermal stabilisation; K562 cells, 10 uM, 30 min; active = over 0.2 and 3.5 SD of the protein, either way, in both replicates (recomputed)
erlotinib = compound: C#Cc1cccc(Nc2ncnc3cc(OCCOC)c(OCCOC)cc23)c1 [erlotinib]
In short: (§1)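 Soluble protein was quantified by TMTpro 16plex LC-MS/MS after channel sums were equalised. It was obtained as the supernatant after 21,000xg for 90 min from pooled aliquots of K562 cells (2×10^6 cells/mL, 10 μM compound, 30 min) heated for 3 min across 48°C-58°C and extracted in PBS with 0.5% NP-40 at 4°C. Thermal stability values are relative to control samples and come from duplicates. They are given as log2 fold changes.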

[1] = compound: C/C(=N\NC(=O)C1=CC(=CC=C1)S(=O)(=O)N2CCOCC2)/C3=C(C=CC(=C3)Cl)O
In short: as §1

[2] = compound: C1=CC(=C(C=C1Cl)C2=NC3=NC=CN=C3C(=N2)NC4=CC=NC=C4)F
In short: as §1

[3] = compound: C1=CC(=CC=C1C2=NC3=C(N2)C=C(C=C3)C(=O)N)OC4=CC=C(C=C4)Cl
In short: as §1

[4] = compound: C1=CC2=C(C=CC(=C2)/C=C\3/C(=O)NC(=NCC4=CC=CS4)S3)N=C1
In short: as §1

[5] = compound: C1=CC2=NC=CN=C2C=C1/C=C/3\C(=O)NC(=O)S3
In short: as §1

[6] = compound: C1=CC=C(C=C1)C2=NC(=C(N2)C3=CC=NC=C3)C4=CC(=C(C=C4)Cl)O
In short: as §1

[7] = compound: C1=CC=C2C(=C1)C3=NNC4=CC=CC(=C43)C2=O
In short: as §1

[8] = compound: C1CCN(C1)C(=O)NC2=CC=CC(=C2)NC3=NC=C(C(=N3)NCCC4=CN=CN4)Br
In short: as §1

[9] = compound: C1CN(CCC1(CC2=CC=C(C=C2)Cl)N)C3=NC=NC4=C3C=CN4
In short: as §1

IRAK-1-4 Inhibitor I = compound: C1COCCN1CCN2C3=CC=CC=C3N=C2NC(=O)C4=CC(=CC=C4)[N+](=O)[O-] [IRAK-1-4 Inhibitor I]
In short: as §1

ibrutinib = compound: C=CC(=O)N1CCC[C@@H](n2nc(-c3ccc(Oc4ccccc4)cc3)c3c(N)ncnc32)C1 [ibrutinib]
In short: as §1

[10] = compound: CC(=O)c1cnc2ccc(-c3cc(Cl)c(O)c(Cl)c3)nc2c1N[C@H]1CC[C@H](CN(C)C)CC1
In short: as §1

ralimetinib = compound: CC(C)(C)Cn1c(N)nc2ccc(-c3[nH]c(C(C)(C)C)nc3-c3ccc(F)cc3)nc21 [ralimetinib]
In short: as §1

[11] = compound: CC(C)(O)CC(=O)NCCn1ccc2ncnc(Nc3ccc(Oc4cccc(C(F)(F)F)c4)c(Cl)c3)c21
In short: as §1

[12] = compound: CC(C)C1=C2N=C(C=C(N2N=C1)NCC3=CC=CC=C3)NCCCCCCN
In short: as §1

[13] = compound: CC(C)C[C@@H](C=O)NC(=O)[C@H](CC(C)C)NC(=O)[C@H](CC(C)C)NC(=O)OCc1ccccc1
In short: as §1

pinometostat = compound: CC(C)N(C[C@H]1O[C@@H](n2cnc3c(N)ncnc32)[C@H](O)[C@@H]1O)[C@H]1C[C@@H](CCc2nc3cc(C(C)(C)C)ccc3[nH]2)C1 [pinometostat]
In short: as §1

[14] = compound: CC1=C(C(CC(=O)N1)C2=CC=C(C=C2)C(F)(F)F)C(=O)NC3=C(C=C4C(=C3)C=NN4)F
In short: as §1

[15] = compound: CC1=C(C2=C(C=C1)C(=O)C3=CC=CC=C3N2CCCN)C
In short: as §1

Measured: log2 fold change

MPG (UniProt P29372)
inactive: erlotinib -0.016 | [1] -0.07 | [2] -0.113 | [3] -0.002 | [4] -0.004 | [5] -0.008 | [6] 0.083 | [7] -0.012 | [8] -0.003 | [9] -0.04 | IRAK-1-4 Inhibitor I -0.21 | ibrutinib 0.036 | [10] 0.077 | ralimetinib 0.158 | [11] 0.073 | [12] -0.02 | [13] 0.043 | pinometostat 0 | [14] -0.003 | [15] 0.024

MICB, A0A140T979
inactive: erlotinib 0.034 | [1] 0.067 | [2] 0.072 | [3] -0.016 | [4] -0.052 | [5] 0.087 | [6] 0 | [7] -0.082 | [8] -0.082 | [9] -0.011 | IRAK-1-4 Inhibitor I 0.014 | ibrutinib 0.092 | [10] -0.1 | ralimetinib 0.015 | [11] -0.027 | [12] 0.091 | [13] 0.11 | pinometostat -0.017 | [14] -0.002 | [15] 0.036

MRE11 isoform 3 (UniProt P49959)
inactive: erlotinib 0.018 | [1] -0.079 | [2] 0.02 | [3] 0.037 | [4] 0.023 | [5] 0.036 | [6] -0.063 | [7] -0.02 | [8] -0.003 | [9] 0.063 | IRAK-1-4 Inhibitor I 0.024 | ibrutinib -0.004 | [10] -0.042 | ralimetinib -0.031 | [11] 0.023 | [12] 0.108 | [13] 0.002 | pinometostat -0.02 | [14] 0.008 | [15] -0.019

MPV17L2 (UniProt Q567V2)
inactive: erlotinib 0.008 | [1] 0.018 | [2] 0.147 | [3] -0.005 | [4] 0.051 | [5] 0.046 | [6] 0.006 | [7] -0.053 | [8] -0.009 | [9] 0.068 | IRAK-1-4 Inhibitor I 0.022 | ibrutinib 0.087 | [10] 0.029 | ralimetinib 0.013 | [11] -0.078 | [12] 0.163 | [13] -0.023 | pinometostat -0.033 | [14] -0.03 | [15] 0.048

MRPL45 (UniProt Q9BRJ2)
inactive: erlotinib -0.159 | [1] -0.071 | [2] -0.103 | [3] 0.081 | [4] 0.01 | [5] 0.011 | [6] -0.011 | [7] 0.132 | [8] -0.085 | [9] -0.195 | IRAK-1-4 Inhibitor I -0.083 | ibrutinib 0.013 | [10] 0.015 | ralimetinib 0.084 | [11] 0.016 | [12] 0 | [13] 0.06 | pinometostat 0.064 | [14] -0.051 | [15] -0.069

MICOS10 (UniProt Q5TGZ0)
inactive: erlotinib -0.009 | [1] 0.053 | [2] 0.16 | [3] -0.022 | [4] 0.089 | [5] 0.05 | [6] 0.022 | [7] 0.093 | [8] -0.01 | [9] 0.014 | IRAK-1-4 Inhibitor I -0.037 | ibrutinib -0.015 | [10] 0.014 | ralimetinib -0.175 | [11] -0.23 | [12] -0.063 | [13] -0.109 | pinometostat 0.007 | [14] 0.08 | [15] 0.188

MINPP1 (UniProt Q9UNW1)
inactive: erlotinib -0.057 | [1] 0.003 | [2] -0.001 | [3] 0.039 | [4] 0.004 | [5] 0.055 | [6] -0.02 | [7] -0.039 | [8] 0.002 | [9] -0.012 | IRAK-1-4 Inhibitor I 0.049 | ibrutinib -0.003 | [10] -0.016 | ralimetinib -0.04 | [11] 0.007 | [12] 0.061 | [13] -0.011 | pinometostat -0.024 | [14] 0.007 | [15] -0.029

MPC2 (UniProt O95563)
inactive: erlotinib 0.021 | [1] 0.016 | [2] 0.079 | [3] 0.011 | [4] 0.011 | [5] 0.03 | [6] -0.005 | [7] -0.019 | [8] 0.009 | [9] 0.047 | IRAK-1-4 Inhibitor I -0.008 | ibrutinib -0.037 | [10] -0.004 | ralimetinib -0.011 | [11] -0.005 | [12] 0.006 | [13] -0.025 | pinometostat -0.06 | [14] -0.01 | [15] 0.012

MRPL38 (UniProt Q96DV4)
inactive: erlotinib -0.167 | [1] -0.125 | [2] -0.194 | [3] 0.114 | [4] -0.058 | [5] -0.021 | [6] -0.006 | [7] 0.146 | [8] 0.033 | [9] -0.215 | IRAK-1-4 Inhibitor I -0.08 | ibrutinib -0.007 | [10] 0.073 | ralimetinib 0.048 | [11] 0.016 | [12] 0.008 | [13] 0.093 | pinometostat 0.141 | [14] -0.026 | [15] -0.115

MLEC (UniProt Q14165)
inactive: erlotinib -0.033 | [1] -0.009 | [2] -0.031 | [3] 0.018 | [4] 0.039 | [5] 0.01 | [6] -0.013 | [7] -0.002 | [8] -0.004 | [9] -0.008 | IRAK-1-4 Inhibitor I -0.003 | ibrutinib -0.03 | [10] 0.027 | ralimetinib 0.011 | [11] 0.013 | [12] -0.04 | [13] -0.003 | pinometostat 0.02 | [14] -0.007 | [15] 0.014

MRI1 (UniProt Q9BV20)
inactive: erlotinib 0.038 | [1] 0.034 | [2] 0.082 | [3] -0.002 | [4] 0.028 | [5] -0.003 | [6] 0.013 | [7] -0.033 | [8] -0.014 | [9] 0.032 | IRAK-1-4 Inhibitor I 0.047 | ibrutinib 0 | [10] -0.021 | ralimetinib 0.009 | [11] -0.011 | [12] 0.039 | [13] -0.06 | pinometostat -0.002 | [14] -0.023 | [15] 0.004

MINDY3 (UniProt Q9H8M7)
inactive: erlotinib 0.011 | [1] -0.015 | [2] 0.027 | [3] 0.011 | [4] 0.068 | [5] 0.009 | [6] 0.023 | [7] 0.036 | [8] -0.023 | [9] 0.089 | IRAK-1-4 Inhibitor I 0.021 | ibrutinib -0.003 | [10] -0.031 | ralimetinib -0.003 | [11] 0.014 | [12] 0.006 | [13] 0.057 | pinometostat -0.084 | [14] -0.037 | [15] 0.026

Reprinted from the entries so far (three entries):
MINPP1 (UniProt Q9UNW1)
inactive: erlotinib -0.057 | [1] 0.003 | [2] -0.001 | [3] 0.039 | [4] 0.004 | [5] 0.055 | [6] -0.02 | [7] -0.039 | [8] 0.002 | [9] -0.012 | IRAK-1-4 Inhibitor I 0.049 | ibrutinib -0.003 | [10] -0.016 | ralimetinib -0.04 | [11] 0.007 | [12] 0.061 | [13] -0.011 | pinometostat -0.024 | [14] 0.007 | [15] -0.029

MPC2 (UniProt O95563)
inactive: erlotinib 0.021 | [1] 0.016 | [2] 0.079 | [3] 0.011 | [4] 0.011 | [5] 0.03 | [6] -0.005 | [7] -0.019 | [8] 0.009 | [9] 0.047 | IRAK-1-4 Inhibitor I -0.008 | ibrutinib -0.037 | [10] -0.004 | ralimetinib -0.011 | [11] -0.005 | [12] 0.006 | [13] -0.025 | pinometostat -0.06 | [14] -0.01 | [15] 0.012

MRPL38 (UniProt Q96DV4)
inactive: erlotinib -0.167 | [1] -0.125 | [2] -0.194 | [3] 0.114 | [4] -0.058 | [5] -0.021 | [6] -0.006 | [7] 0.146 | [8] 0.033 | [9] -0.215 | IRAK-1-4 Inhibitor I -0.08 | ibrutinib -0.007 | [10] 0.073 | ralimetinib 0.048 | [11] 0.016 | [12] 0.008 | [13] 0.093 | pinometostat 0.141 | [14] -0.026 | [15] -0.115

The listing continues:

MMUT (UniProt P22033)
inactive: erlotinib 0.011 | [1] 0.035 | [2] 0.037 | [3] 0.018 | [4] 0.018 | [5] 0.008 | [6] -0.012 | [7] 0.003 | [8] -0.065 | [9] 0.04 | IRAK-1-4 Inhibitor I 0.012 | ibrutinib -0.019 | [10] -0.072 | ralimetinib -0.027 | [11] 0.112 | [12] -0.004 | [13] 0.047 | pinometostat -0.002 | [14] -0.013 | [15] 0.015

MRPL2 (UniProt Q5T653)
inactive: erlotinib -0.103 | [1] -0.149 | [2] 0.019 | [3] 0.101 | [4] -0.068 | [5] 0.005 | [6] -0.072 | [7] 0.171 | [8] -0.045 | [9] -0.083 | IRAK-1-4 Inhibitor I -0.087 | ibrutinib -0.069 | [10] 0.102 | ralimetinib 0.023 | [11] 0.149 | [12] 0.041 | [13] 0.078 | pinometostat 0.111 | [14] 0.046 | [15] -0.103

MRPL37 (UniProt Q9BZE1)
inactive: erlotinib -0.084 | [1] -0.119 | [2] -0.09 | [3] 0.064 | [4] -0.031 | [5] 0.016 | [6] 0.036 | [7] 0.129 | [8] -0.066 | [9] -0.157 | IRAK-1-4 Inhibitor I -0.111 | ibrutinib -0.025 | [10] 0.003 | ralimetinib 0.116 | [11] 0 | [12] 0.028 | [13] 0.132 | pinometostat 0.12 | [14] 0.029 | [15] -0.037

MRPL3 (UniProt P09001)
inactive: erlotinib -0.169 | [1] -0.12 | [2] -0.168 | [3] 0.099 | [4] -0.056 | [5] -0.034 | [6] 0.017 | [7] 0.124 | [8] -0.001 | [9] -0.212 | IRAK-1-4 Inhibitor I -0.077 | ibrutinib -0.023 | [10] 0.059 | ralimetinib 0.06 | [11] 0.015 | [12] 0.025 | [13] 0.253 | pinometostat 0.12 | [14] -0.009 | [15] -0.048
